PubChem BioAssay AID504744, Drosophila RNAi Screening Center, 2011
Aim: 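Identify dsRNAs that increase or decrease phospho-dAkt after insulin treatment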 (primary screen). Cells: Drosophila Kc167 cells. Reagents: long dsRNA against Drosophila genes, 250 ng dsRNA per well of a 384-well plate. Duration: 3 days of knock-down, then overnight serum-free starvation before stimulation. Conditions: bovine insulin at 387 nM for 10 minutes after 12 h without serum. Detection: 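In-cell antibody fluorescence for phospho-dAkt in each well over DNA-dye signal, with log2 residuals expressed as z-scores adjusted for cell count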. Active means: 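Hit in the insulin screen when the two-replicate mean z-score is more extreme than plus or minus 2.5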.
In all, the deposit lists about 23,000 reagents; this is an unselected part of those that have a named target and a result. Over the whole deposit, 98 (0.43%) were called active. 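Only hit calls are given; the phospho-dAkt signals, z-scores and hit direction were not deposited.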 The numbers tell different reagents against one gene apart. A plus sign joins genes that one reagent is predicted to hit.

gene,reagent no.,activity call
CG7573,1,inactive
Ugt305A1,1,inactive
ND-51L2,1,inactive
Spn88Eb,1,inactive
CG1724,1,inactive
Rtnl1,1,inactive
Rtnl1,2,active
Rtnl1,3,inactive
Rtnl1,4,inactive
CG5639,1,inactive
CG1143,1,inactive
stmA,1,inactive
stmA,2,inactive
stmA,3,inactive
CG32071,1,inactive
Cyp6w1,1,inactive
hoka,1,inactive
ND-20L,1,inactive
Tsp3A,1,inactive
FucTB,1,inactive
sr,1,inactive
sr,2,inactive
lncRNA:sphinx + ATPsynF,1,inactive
sncRNA:430e + His2A:CG33859 + His2A:CG33817 + 37 more,1,inactive
CG7430,1,inactive
cato,1,inactive
Tsp26A,1,inactive
CG4020,1,inactive
ppk14,1,inactive
Gpdh2,1,inactive
CG32409,1,inactive
ovo,1,inactive
ovo,2,inactive
COX3 (retired record),1,inactive
CG6550,1,inactive
OtopLa,1,inactive
OtopLa,2,inactive
Alg14,1,inactive
wmd,1,inactive
jar,1,inactive
CG42729,1,inactive
Uba4,1,inactive
CG18179,1,inactive
CG6484,1,inactive
Rsph1,1,inactive
Sod2,1,inactive
Mesh1,1,inactive
MagR,1,inactive
gudu,1,inactive
kek6,1,inactive
CG9691,1,inactive
blp,1,inactive
CG11927,1,inactive
CG17571,1,inactive
CG17571,2,inactive
CG14383,1,inactive
CG18268 + CG3014,1,inactive
pix,1,inactive
TrpRS-m,1,inactive
CG33223,1,inactive
Su(var)3-9,1,inactive
mRpL33,1,inactive
CG9525,1,inactive
RabX2,1,inactive
